Here are results for 1 molecule from article PMC4921775, “Transient Fcho1/2⋅Eps15/R⋅AP-2 Nanoclusters Prime the AP-2 Clathrin Adaptor for Cargo Binding” (Developmental Cell, 2016).

In this assay the target is zebrafish Fcho1 μHD (residues 867–1,152) of the EPS15-Fcho1 μHD chimera (Danio rerio (zebrafish)). Kind of assay: crystal structure; EPS15 (615–637)-GAGA-zebrafish Fcho1 μHD (867–1,152) chimera; hanging drops, 100 mM Bis-Tris propane pH 6.0, 200 mM sodium citrate, 22% PEG 3350, 10 mM DTT; 2.4 Å, Xe SAD; both purified.

Results are given in words; binding and its absence hold for the method and conditions named. Binding calls can cover weak binding; strength is not graded here.

Take TNLDFFQSDPFVGSDPFKDDPFG (peptide, UniProt P42566 615-637) [EPS15 (T615–G637) segment of the EPS15-Fcho1 μHD chimera]: the binding result is given as “binds”.
